The other results are listed elsewhere or left out.
Tests used:
Assay in all cases: glycan array binding signal (z-score within array); higher = stronger binding
Details in all cases: glycan notation: IUPAC condensed, linker removed
[1] = molecular target: Neu5Ac(a2-6)Gal(b1-4)GlcNAc(b1-3)Gal(b1-4)GlcNAc(b1-2)Man(a1-3)[Neu5Ac(a2-6)Gal(b1-4)GlcNAc(b1-3)Gal(b1-4)GlcNAc(b1-2)Man(a1-6)]GalNAc
Procedure, shortened: (§1)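 From the Consortium for Functional Glycomics database, 3228 arrays were curated, keeping only those whose protein sequence was available. Binding is given as a within-array Z-score averaged across arrays sharing a protein sequence and across linkers. Negative Z-scores can be read as non-binding.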

[2] = molecular target: Neu5Ac(a2-6)Gal(b1-4)GlcNAc(b1-3)Gal(b1-4)GlcNAc(b1-3)Gal(b1-4)GlcNAc
Procedure, shortened: as §1

[3] = molecular target: Neu5Ac(a2-6)Gal(b1-4)GlcNAc(b1-3)Gal(b1-4)GlcNAc(b1-3)Gal(b1-4)GlcNAc(b1-2)Man(a1-3)[Neu5Ac(a2-6)Gal(b1-4)GlcNAc(b1-3)Gal(b1-4)GlcNAc(b1-3)Gal(b1-4)GlcNAc(b1-2)Man(a1-6)]GalNAc
Procedure, shortened: as §1

[4] = molecular target: Neu5Ac(a2-6)Gal(b1-4)GlcNAc(b1-3)Gal(b1-4)GlcNAc(b1-3)GalNAc
Procedure, shortened: as §1

[5] = molecular target: Neu5Ac(a2-6)Gal(b1-4)GlcNAc(b1-3)Gal(b1-4)GlcNAc(b1-3)[Neu5Ac(a2-6)Gal(b1-4)GlcNAc(b1-3)Gal(b1-4)GlcNAc(b1-6)]GalNAc
Procedure, shortened: as §1

[6] = molecular target: Neu5Ac(a2-6)Gal(b1-4)GlcNAc(b1-3)Gal(b1-4)GlcNAc(b1-6)[Gal(b1-3)]GalNAc
Procedure, shortened: as §1

[7] = molecular target: Neu5Ac(a2-6)Gal(b1-4)GlcNAc(b1-3)Gal(b1-4)[Fuc(a1-3)]GlcNAc(b1-3)Gal(b1-4)[Fuc(a1-3)]GlcNAc
Procedure, shortened: as §1

[8] = molecular target: Neu5Ac(a2-6)Gal(b1-4)GlcNAc(b1-3)GalNAc
Procedure, shortened: as §1

[9] = molecular target: Neu5Ac(a2-6)Gal(b1-4)GlcNAc(b1-3)[Neu5Ac(a2-6)Gal(b1-4)GlcNAc(b1-6)]GalNAc
Procedure, shortened: as §1

[10] = molecular target: Neu5Ac(a2-6)Gal(b1-4)GlcNAc(b1-6)GalNAc
Procedure, shortened: as §1

[11] = molecular target: Neu5Ac(a2-6)Gal(b1-4)GlcNAc(b1-6)[Gal(b1-3)GlcNAc(b1-3)]Gal(b1-4)Glc
Procedure, shortened: as §1

[12] = molecular target: Neu5Ac(a2-6)Gal(b1-4)GlcNAc(b1-6)[Gal(b1-3)]GalNAc
Procedure, shortened: as §1

[13] = molecular target: Neu5Ac(a2-6)Gal(b1-4)GlcNAc6S
Procedure, shortened: as §1

Neu5Ac(a2-6)GalNAc = molecular target: Neu5Ac(a2-6)GalNAc
Procedure, shortened: as §1

[14] = molecular target: Neu5Ac(a2-6)GalNAc(b1-4)GlcNAc
Procedure, shortened: as §1

[15] = molecular target: Neu5Ac(a2-6)GalNAc(b1-4)GlcNAc6S
Procedure, shortened: as §1

[16] = molecular target: Neu5Ac(a2-6)GlcNAc(b1-4)GlcNAc
Procedure, shortened: as §1

[17] = molecular target: Neu5Ac(a2-6)GlcNAc(b1-4)GlcNAc(b1-4)GlcNAc
Procedure, shortened: as §1

Neu5Ac(a2-8)Neu5Ac = molecular target: Neu5Ac(a2-8)Neu5Ac
Procedure, shortened: as §1

[18] = molecular target: Neu5Ac(a2-8)Neu5Ac(a2-3)Gal(b1-3)GalNAc(b1-4)[Neu5Ac(a2-3)]Gal(b1-4)Glc
Procedure, shortened: as §1

[19] = molecular target: Neu5Ac(a2-8)Neu5Ac(a2-3)Gal(b1-3)GalNAc(b1-4)[Neu5Ac(a2-8)Neu5Ac(a2-3)]Gal(b1-4)Glc
Procedure, shortened: as §1

[20] = molecular target: Neu5Ac(a2-8)Neu5Ac(a2-3)Gal(b1-4)Glc
Procedure, shortened: as §1

[21] = molecular target: Neu5Ac(a2-8)Neu5Ac(a2-3)Gal(b1-4)GlcNAc
Procedure, shortened: as §1

[22] = molecular target: Neu5Ac(a2-8)Neu5Ac(a2-3)[Gal(b1-3)GalNAc(b1-4)]Gal(b1-4)Glc
Procedure, shortened: as §1

[23] = molecular target: Neu5Ac(a2-8)Neu5Ac(a2-3)[GalNAc(b1-4)]Gal(b1-4)Glc
Procedure, shortened: as §1

[24] = molecular target: Neu5Ac(a2-8)Neu5Ac(a2-8)Neu5Ac
Procedure, shortened: as §1

[25] = molecular target: Neu5Ac(a2-8)Neu5Ac(a2-8)Neu5Ac(a2-3)Gal(b1-4)Glc
Procedure, shortened: as §1

[26] = molecular target: Neu5Ac(a2-8)Neu5Ac(a2-8)Neu5Ac(a2-3)[Gal(b1-3)GalNAc(b1-4)]Gal(b1-4)Glc
Procedure, shortened: as §1

[27] = molecular target: Neu5Ac(a2-8)Neu5Ac(a2-8)Neu5Ac(a2-3)[GalNAc(b1-4)]Gal(b1-4)Glc
Procedure, shortened: as §1

[28] = molecular target: Neu5Ac(a2-8)Neu5Ac(a2-8)Neu5Ac(a2-8)Neu5Ac(a2-3)[GalNAc(b1-4)]Gal(b1-4)Glc
Procedure, shortened: as §1

[29] = molecular target: Neu5Ac(a2-8)Neu5Gc(a2-3)Gal(b1-4)GlcNAc
Procedure, shortened: as §1

[30] = molecular target: Neu5Ac(b2-6)Gal(b1-4)GlcNAc
Procedure, shortened: as §1

Neu5Ac(b2-6)GalNAc = molecular target: Neu5Ac(b2-6)GalNAc
Procedure, shortened: as §1

[31] = molecular target: Neu5Ac9Ac(a2-3)Gal(b1-3)GlcNAc
Procedure, shortened: as §1

[32] = molecular target: Neu5Ac9Ac(a2-3)Gal(b1-4)GlcNAc
Procedure, shortened: as §1

[33] = molecular target: Neu5Ac9Ac(a2-6)Gal(b1-4)GlcNAc
Procedure, shortened: as §1

[34] = molecular target: Neu5Gc(a2-3)Gal(b1-3)GlcNAc
Procedure, shortened: as §1

[35] = molecular target: Neu5Gc(a2-3)Gal(b1-3)[Fuc(a1-4)]GlcNAc
Procedure, shortened: as §1

Neu5Gc(a2-3)Gal(b1-4)Glc = molecular target: Neu5Gc(a2-3)Gal(b1-4)Glc
Procedure, shortened: as §1

[36] = molecular target: Neu5Gc(a2-3)Gal(b1-4)GlcNAc
Procedure, shortened: as §1

[37] = molecular target: Neu5Gc(a2-3)Gal(b1-4)GlcNAc(b1-3)Gal(b1-4)GlcNAc(b1-2)Man(a1-3)[Neu5Gc(a2-3)Gal(b1-4)GlcNAc(b1-3)Gal(b1-4)GlcNAc(b1-2)Man(a1-6)]Man(b1-4)GlcNAc(b1-4)GlcNAc
Procedure, shortened: as §1

[38] = molecular target: Neu5Gc(a2-3)Gal(b1-4)[Fuc(a1-3)]GlcNAc
Procedure, shortened: as §1

[39] = molecular target: Neu5Gc(a2-6)Gal(b1-4)GlcNAc
Procedure, shortened: as §1

Neu5Gc(a2-6)GalNAc = molecular target: Neu5Gc(a2-6)GalNAc
Procedure, shortened: as §1

[40] = molecular target: Neu5Gc(a2-8)Neu5Ac(a2-3)Gal(b1-4)GlcNAc
Procedure, shortened: as §1

B1: BIp1-His (Cryptococcus neoformans) (protein)
chain: MFTKIFVALFAATAVLSAPVESAEKRITHTGRATFYSPSVGIGACGWQNTDEELVVALNAPQYALNADHNCGQSVRITNEQNGNQEIAKVVDLCPGCNDGDLDMSPALFGALNNNDFDQGVFPISWNFLPRDDTSSSN
[1]
  glycan array binding signal (z-score): -0.186
[2]
  glycan array binding signal (z-score): -0.069
[3]
  glycan array binding signal (z-score): 1.79
[4]
  glycan array binding signal (z-score): -0.51
[5]
  glycan array binding signal (z-score): 0.847
[6]
  glycan array binding signal (z-score): -0.827
[7]
  glycan array binding signal (z-score): -0.059
[8]
  glycan array binding signal (z-score): 0.627
[9]
  glycan array binding signal (z-score): 0.732
[10]
  glycan array binding signal (z-score): 0.072
[11]
  glycan array binding signal (z-score): -0.354
[12]
  glycan array binding signal (z-score): -0.295
[13]
  glycan array binding signal (z-score): -1.31
Neu5Ac(a2-6)GalNAc
  glycan array binding signal (z-score): -0.91
[14]
  glycan array binding signal (z-score): -1.18
[15]
  glycan array binding signal (z-score): -0.643
[16]
  glycan array binding signal (z-score): -0.869
[17]
  glycan array binding signal (z-score): -0.542
Neu5Ac(a2-8)Neu5Ac
  glycan array binding signal (z-score): 0.432
[18]
  glycan array binding signal (z-score): 0.501
[19]
  glycan array binding signal (z-score): 1.77
[20]
  glycan array binding signal (z-score): -1.09
[21]
  glycan array binding signal (z-score): -0.692
[22]
  glycan array binding signal (z-score): -0.737
[23]
  glycan array binding signal (z-score): 0.558
[24]
  glycan array binding signal (z-score): -0.332
[25]
  glycan array binding signal (z-score): -0.359
[26]
  glycan array binding signal (z-score): 0.702
[27]
  glycan array binding signal (z-score): -0.085
[28]
  glycan array binding signal (z-score): -0.15
[29]
  glycan array binding signal (z-score): -0.324
[30]
  glycan array binding signal (z-score): -0.832
Neu5Ac(b2-6)GalNAc
  glycan array binding signal (z-score): -0.971
[31]
  glycan array binding signal (z-score): -0.098
[32]
  glycan array binding signal (z-score): -0.399
[33]
  glycan array binding signal (z-score): -0.386
[34]
  glycan array binding signal (z-score): -0.069
[35]
  glycan array binding signal (z-score): -0.455
Neu5Gc(a2-3)Gal(b1-4)Glc
  glycan array binding signal (z-score): 0.075
[36]
  glycan array binding signal (z-score): -0.584
[37]
  glycan array binding signal (z-score): 1.38
[38]
  glycan array binding signal (z-score): 0.255
[39]
  glycan array binding signal (z-score): -0.335
Neu5Gc(a2-6)GalNAc
  glycan array binding signal (z-score): -1.14
[40]
  glycan array binding signal (z-score): -0.932
